Laboratory results taken from article PMC3031510.
Results are given in words; binding and its absence hold for the method and conditions named. For part of these data: In cells and extracts the contact can be indirect. Some entries that bind do so weakly or less than the wild type. Where a sequence is shown, tags or fusion partners need not be part of it.

Chains of the proteins cited; added tags and fusions are not shown. Lines headed by an entry give the natural chain unless they say otherwise; changes in a name come on top. Residues count along the entry.
UniProt P21127, residues 357-795: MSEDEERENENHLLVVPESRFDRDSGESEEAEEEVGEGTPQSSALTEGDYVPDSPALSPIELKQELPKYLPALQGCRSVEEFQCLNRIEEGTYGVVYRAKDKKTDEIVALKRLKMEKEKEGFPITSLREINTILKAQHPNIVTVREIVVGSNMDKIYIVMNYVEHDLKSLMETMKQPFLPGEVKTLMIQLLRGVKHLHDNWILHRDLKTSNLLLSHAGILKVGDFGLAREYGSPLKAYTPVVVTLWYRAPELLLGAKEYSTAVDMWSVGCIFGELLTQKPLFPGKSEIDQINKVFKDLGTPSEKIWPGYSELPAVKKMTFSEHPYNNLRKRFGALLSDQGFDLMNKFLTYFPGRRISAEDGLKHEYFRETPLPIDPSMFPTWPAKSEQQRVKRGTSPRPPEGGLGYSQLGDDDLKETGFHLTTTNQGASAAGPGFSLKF

Tests used:
[1] = target: T1, Myc-Plk4-FL (Myc-tagged Plk4 full length) (UniProt O00444); assay: co-IP; COS-7 cells co-expressing the tagged proteins; lysis buffer 50mM HEPES, 100mM KCl, 0,5% NP40; immunoprecipitation with anti-Myc antibody on Dynabeads protein A, 3 hours; Western blot
T1 sequence: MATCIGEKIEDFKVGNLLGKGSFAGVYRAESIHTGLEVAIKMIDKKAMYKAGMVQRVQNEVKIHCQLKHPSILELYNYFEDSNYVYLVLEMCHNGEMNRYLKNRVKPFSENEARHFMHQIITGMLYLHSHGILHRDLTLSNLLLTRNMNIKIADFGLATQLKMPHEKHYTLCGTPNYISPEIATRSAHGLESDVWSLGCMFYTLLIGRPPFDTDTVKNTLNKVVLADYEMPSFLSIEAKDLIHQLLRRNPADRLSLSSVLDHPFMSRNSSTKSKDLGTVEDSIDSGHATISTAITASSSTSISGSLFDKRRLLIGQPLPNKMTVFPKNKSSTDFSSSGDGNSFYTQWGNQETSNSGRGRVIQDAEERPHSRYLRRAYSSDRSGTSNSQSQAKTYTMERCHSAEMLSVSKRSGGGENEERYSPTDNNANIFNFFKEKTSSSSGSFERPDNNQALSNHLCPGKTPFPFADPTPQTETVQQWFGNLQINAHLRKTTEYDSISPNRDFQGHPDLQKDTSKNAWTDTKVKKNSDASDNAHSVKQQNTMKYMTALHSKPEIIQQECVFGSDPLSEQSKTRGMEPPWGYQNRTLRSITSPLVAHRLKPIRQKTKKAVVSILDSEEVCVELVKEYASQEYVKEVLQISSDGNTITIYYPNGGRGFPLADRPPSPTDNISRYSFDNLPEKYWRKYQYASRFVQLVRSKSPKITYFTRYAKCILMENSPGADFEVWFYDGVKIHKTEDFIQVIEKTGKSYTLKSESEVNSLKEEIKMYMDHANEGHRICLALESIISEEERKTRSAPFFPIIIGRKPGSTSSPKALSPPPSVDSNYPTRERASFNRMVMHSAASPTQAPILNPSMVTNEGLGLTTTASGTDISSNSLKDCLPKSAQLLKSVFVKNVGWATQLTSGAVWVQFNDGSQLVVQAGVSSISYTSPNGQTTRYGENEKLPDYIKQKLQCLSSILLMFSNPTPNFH

GFP-CDK11^p58 = GFP-CDK11^p58 (UniProt P21127); assay: co-IP; COS-7 cells co-expressing the tagged proteins; lysis buffer 50mM HEPES, 100mM KCl, 0,5% NP40; immunoprecipitation with anti-GFP antibody on Dynabeads protein A, 3 hours; Western blot
[2] = target: MBP-CDK11^p58 (Maltose-Binding Protein-tagged CDK11^p58) (UniProt P21127); assay: pull-down; 10µg MBP-CDK11^p58 immobilised on amylose, incubated with 5µg purified Plk4-V5-(His)6 in PBS, 0,1% triton X-100, 0,1% NP40, 1h at 4°C; 3 washes; anti-V5 Western blot; both purified

Molecule: GFP-CDK11^p58 (from UniProt P21127-12 1-439) (enzyme)
- binding [1]: binds

B1: Myc-Plk4-FL (Myc-tagged Plk4 full length) (enzyme, UniProt O00444 1-970)
chain: T1 sequence
- binding (GFP-CDK11^p58): binds

B2: Plk4-V5-(His)6 (enzyme, UniProt O00444 1-970)
chain: T1 sequence
- binding [2]: binds
